Measured values reported in patent US20060058505A1, “Nucleic acid and polypeptide linked to breast cancer and uses therefor” (priority 2001, published 2006).
These are yes or no findings as the source states them, for the method shown. Some results given as binding are weak or reduced against the parent protein; the word gives no strength. Sequences can lack the tags named with a protein.

T1: His-tagged N-terminal domain of rasGAP^120 (amino acids 1-356, includes the full SH3 domain) (UniProt P20936)
T1 sequence (looked up): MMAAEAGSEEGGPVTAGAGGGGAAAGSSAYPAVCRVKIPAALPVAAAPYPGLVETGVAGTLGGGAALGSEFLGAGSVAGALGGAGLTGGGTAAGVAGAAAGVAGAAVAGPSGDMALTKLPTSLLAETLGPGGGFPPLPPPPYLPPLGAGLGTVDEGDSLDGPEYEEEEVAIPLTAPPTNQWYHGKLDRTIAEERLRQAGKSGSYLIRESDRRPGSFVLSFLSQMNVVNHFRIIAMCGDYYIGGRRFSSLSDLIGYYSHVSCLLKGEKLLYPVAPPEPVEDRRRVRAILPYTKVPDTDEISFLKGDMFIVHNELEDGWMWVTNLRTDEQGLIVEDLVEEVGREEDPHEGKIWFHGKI

B1: δ-2a-N146 (GST fusion of G3BP-2a N-terminal amino acids 1 to 146, the NTF2-like domain) (protein, not shown: a dimerising Fc or GST; large carriers; small tags and cut ends)
chain: MVMEKPSPLLVGREFVRQYYTLLNKAPEYLHRFYGRNSSYVHGGVDASGKPQEAVYGQNDIHHKVLSLNFSECHTKIRHVDAHATLSDGVVVQVMGLLSNSGQPERKFMQTFVLAPEGSVPNKFYVHNDMFRYEDEVFGDSEPELD
B2: GST fusion full length G3BP-2a (protein, not shown: a dimerising Fc or GST)
chain: MVMEKPSPLLVGREFVRQYYTLLNKAPEYLHRFYGRNSSYVHGGVDASGKPQEAVYGQNDIHHKVLSLNFSECHTKIRHVDAHATLSDGVVVQVMGLLSNSGQPERKFMQTFVLAPEGSVPNKFYVHNDMFRYEDEVFGDSEPELDEESEDEVEEEQEERQPSPEPVQENANSGYYEAHPVTNGIEEPLEESSHEPEPEPESETKTEELKPQVEEKNLEELEEKSTTPPPAEPVSLPQEPPKAFSWASVTSKNLPPSGTVSSSGIPSHVKAPVSQPRVEAKPEVQSQPPRVREQRPRERPGFPPRGPRPGRGDMEQNDSDNRRIIRYPDSHQLFVGNLPHDIDENELKEFFMSFGNVVELRINTKGVGGKLPNFGFVVFDDSEPVQRILIAKPIMFRGEVRLNVEEKKTRAARERETRGGGDDRRDIRRNDRGPGGPRGIVGGGMMRDRDGRGPPPRGGMAQKLGSGRGTGQMEGRFTGQRR

Molecular target: T1, His-tagged N-terminal domain of rasGAP^120 (amino acids 1-356, includes the full SH3 domain)
Assay: GST bead binding assay, anti-His Western blot

binding, binds:
GST fusion full length G3BP-1 (from UniProt Q13283 1-466)
B1
B2
